The other results are listed elsewhere or left out. Repeats are few or missing, and single values can be far off.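 Imaging used 1,536-well plates; nuclei positive for cleaved PARP by antibody were divided by total DNA-stained nuclei to yield the apoptosis fraction. Doses for screening kept most cells viable, and cell lines differ markedly in resting and induced cleaved-PARP levels.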
What follows are molecules tested on CBRC013 (line from a melanoma biopsy) (assay: cleaved PARP positive nuclei fraction relative to DMSO control; melanoma cells; higher = more apoptosis). Conditions: library dose: low library concentration; 72 h.

| SMILES | cleaved PARP positive nuclei fraction [%] |
| --- | --- |
| Cn1c(Nc2ccc(C(F)(F)F)cc2)nc2cc(Oc3ccnc(-c4ncc(C(F)(F)F)[nH]4)c3)ccc21 + O=C(Oc1ccc([N+](=O)[O-])cc1)N1CCC(C(O)(c2ccc3c(c2)OCO3)c2ccc3c(c2)OCO3)CC1 [JZL184] (first compound 0.08 µM, partner dose 1 µM) | 134 |
| C/C(O)=C(\C#N)C(=O)Nc1cc(Br)ccc1Br + COc1cc(N2CCC(N3CCN(C)CC3)CC2)ccc1Nc1ncc(Cl)c(Nc2ccccc2S(=O)(=O)C(C)C)n1 [NVP-TAE684] (first compound 2 µM, partner dose 0.08 µM) | 25.5 |
| Cc1cc(SCc2sc(-c3ccc(C(F)(F)F)c(F)c3)nc2C)ccc1OCC(=O)O + Cc1cc([N+](=O)[O-])ccc1NS(=O)(=O)c1cc(Cl)ccc1Cl [FH535] (first compound 2 µM, partner dose 1 µM) | 65.7 |
| C[As](C)SC[C@H](NC(=O)CC[C@H](N)C(=O)O)C(=O)NCC(=O)O [Darinaparsin] + O=S(=O)(c1ccccc1)N(CC(F)(F)F)c1ccc(C(O)(C(F)(F)F)C(F)(F)F)cc1 [T0901317] (first compound 0.4 µM, partner dose 1.4 µM) | 55.2 |
| Cc1cc(SCc2sc(-c3ccc(C(F)(F)F)c(F)c3)nc2C)ccc1OCC(=O)O + Oc1nc(-c2ccc(C(F)(F)F)cc2)nc2c1CSCC2 [XAV939] (first compound 2 µM, partner dose 2 µM) | 246 |
| CCc1ccc(CCOc2ccc(CC3SC(=O)NC3=O)cc2)nc1 (configuration not stated) [pioglitazone] + Cc1cc(SCc2sc(-c3ccc(C(F)(F)F)c(F)c3)nc2C)ccc1OCC(=O)O [GW0742] (first compound 2 µM, partner dose 2 µM) | 291 |
| Cc1cc(N2CCOCC2)cc2[nH]c(-c3c(NC[C@@H](O)c4cccc(Cl)c4)cc[nH]c3=O)nc12 + O=C(Oc1ccc([N+](=O)[O-])cc1)N1CCC(C(O)(c2ccc3c(c2)OCO3)c2ccc3c(c2)OCO3)CC1 [JZL184] (first compound 0.2 µM, partner dose 1 µM) | 44.7 |
| C[As](C)SC[C@H](NC(=O)CC[C@H](N)C(=O)O)C(=O)NCC(=O)O [Darinaparsin] + O=C(Oc1ccc([N+](=O)[O-])cc1)N1CCC(C(O)(c2ccc3c(c2)OCO3)c2ccc3c(c2)OCO3)CC1 [JZL184] (first compound 0.4 µM, partner dose 1 µM) | 172 |
| Cc1cc(SCc2sc(-c3ccc(C(F)(F)F)c(F)c3)nc2C)ccc1OCC(=O)O + c1cc(-c2cnn3cc(-c4ccc(OCCN5CCCCC5)cc4)cnc23)ccn1 [Dorsomorphin] (first compound 2 µM, partner dose 0.4 µM) | 103 |
| C#Cc1cccc(Nc2ncnc3cc(OCCOC)c(OCCOC)cc23)c1 [erlotinib] + C/C(O)=C(\C#N)C(=O)Nc1cc(Br)ccc1Br [LFM-A13] (first compound 0.8 µM, partner dose 2 µM) | 46.5 |
| C/C(O)=C(\C#N)C(=O)Nc1cc(Br)ccc1Br + O=c1cc(-c2cccc3c2Sc2ccccc2S3)oc(N2CCOCC2)c1 [KU55933] (first compound 2 µM, partner dose 1 µM) | 22.2 |
| Cc1cc(SCc2sc(-c3ccc(C(F)(F)F)c(F)c3)nc2C)ccc1OCC(=O)O + Oc1cc(-c2nc(-c3ccccc3)[nH]c2-c2ccncc2)ccc1Cl [L779450] (first compound 2 µM, partner dose 0.2 µM) | 263 |
| O=C(Nc1cccc(Cl)c1)Nc1ncc(CCNc2ncnc3ccsc23)s1 + O=C(Oc1ccc([N+](=O)[O-])cc1)N1CCC(C(O)(c2ccc3c(c2)OCO3)c2ccc3c(c2)OCO3)CC1 [JZL184] (first compound 0.0008 µM, partner dose 1 µM) | 365 |
| COc1ccc(-c2ccc3c(N4CCOCC4)nc(N4C[C@@H](C)O[C@@H](C)C4)nc3n2)cc1CO + O=C(Oc1ccc([N+](=O)[O-])cc1)N1CCC(C(O)(c2ccc3c(c2)OCO3)c2ccc3c(c2)OCO3)CC1 [JZL184] (first compound 0.02 µM, partner dose 1 µM) | 1510 |
| Cc1nc(Nc2ncc(C(=O)Nc3c(C)cccc3Cl)s2)cc(N2CCN(CCO)CC2)n1 [dasatanib] + C/C(O)=C(\C#N)C(=O)Nc1cc(Br)ccc1Br [LFM-A13] (first compound 0.004 µM, partner dose 2 µM) | 75.5 |
| COCC[n+]1c2c(n(Cc3cnccn3)c1C)C(=O)c1ccccc1C2=O + Cc1cc(SCc2sc(-c3ccc(C(F)(F)F)c(F)c3)nc2C)ccc1OCC(=O)O [GW0742] (first compound 0.0004 µM, partner dose 2 µM) | 129 |

A second format for part of the listing above:
SMILES,cleaved PARP positive nuclei fraction [%]
"C[As](C)SC[C@H](NC(=O)CC[C@H](N)C(=O)O)C(=O)NCC(=O)O [Darinaparsin] + O=S(=O)(c1ccccc1)N(CC(F)(F)F)c1ccc(C(O)(C(F)(F)F)C(F)(F)F)cc1 [T0901317] (first compound 0.4 µM, partner dose 1.4 µM)",55.2
"C/C(O)=C(\C#N)C(=O)Nc1cc(Br)ccc1Br + O=c1cc(-c2cccc3c2Sc2ccccc2S3)oc(N2CCOCC2)c1 [KU55933] (first compound 2 µM, partner dose 1 µM)",22.2

The list continues:

| SMILES | cleaved PARP positive nuclei fraction [%] |
| --- | --- |
| COc1cc(N2CCC(N3CCN(C)CC3)CC2)ccc1Nc1ncc(Cl)c(Nc2ccccc2S(=O)(=O)C(C)C)n1 + O=C(Oc1ccc([N+](=O)[O-])cc1)N1CCC(C(O)(c2ccc3c(c2)OCO3)c2ccc3c(c2)OCO3)CC1 [JZL184] (first compound 0.08 µM, partner dose 1 µM) | 292 |
| NCC(=O)Nc1ccc(-n2nc(C(F)(F)F)cc2-c2ccc3c(ccc4ccccc43)c2)cc1 + Cc1cc(SCc2sc(-c3ccc(C(F)(F)F)c(F)c3)nc2C)ccc1OCC(=O)O [GW0742] (first compound 1 µM, partner dose 2 µM) | 159 |
| C/C(O)=C(\C#N)C(=O)Nc1cc(Br)ccc1Br + Cn1cc(/C=C2\C(=O)Nc3cccnc32)c2ccccc21 [GW441756] (first compound 2 µM, partner dose 0.4 µM) | 104 |
| C[As](C)SC[C@H](NC(=O)CC[C@H](N)C(=O)O)C(=O)NCC(=O)O [Darinaparsin] + c1cc(-c2cnn3cc(-c4ccc(OCCN5CCCCC5)cc4)cnc23)ccn1 [Dorsomorphin] (first compound 0.4 µM, partner dose 0.4 µM) | 580 |
| CCc1ccc(CCOc2ccc(CC3SC(=O)NC3=O)cc2)nc1 (configuration not stated) [pioglitazone] + C/C(O)=C(\C#N)C(=O)Nc1cc(Br)ccc1Br [LFM-A13] (first compound 2 µM, partner dose 2 µM) | 228 |
| Nc1cccc2c1CN(C1CCC(=O)NC1=O)C2=O (configuration not stated) [lenalidomide] + Cc1cc(SCc2sc(-c3ccc(C(F)(F)F)c(F)c3)nc2C)ccc1OCC(=O)O [GW0742] (first compound 1 µM, partner dose 2 µM) | 43.9 |
| Cc1cc(SCc2sc(-c3ccc(C(F)(F)F)c(F)c3)nc2C)ccc1OCC(=O)O + CC(C)CCN1c2nc(Nc3cc(F)c(O)c(F)c3)ncc2N(C)C(=O)C1C [BID1870] (first compound 2 µM, partner dose 0.2 µM) | 44.9 |
| C[As](C)SC[C@H](NC(=O)CC[C@H](N)C(=O)O)C(=O)NCC(=O)O [Darinaparsin] + COc1cc2ncnc(Nc3ccc(Oc4ccccc4)cc3)c2cc1OC [SrcI1] (first compound 0.4 µM, partner dose 2 µM) | 192 |
| COc1ccc(-c2ccc3c(N4CCOCC4)nc(N4C[C@@H](C)O[C@@H](C)C4)nc3n2)cc1CO + Cc1cc(SCc2sc(-c3ccc(C(F)(F)F)c(F)c3)nc2C)ccc1OCC(=O)O [GW0742] (first compound 0.02 µM, partner dose 2 µM) | 48.5 |
| O=S(=O)(c1ccccc1)N(CC(F)(F)F)c1ccc(C(O)(C(F)(F)F)C(F)(F)F)cc1 + C/C(O)=C(\C#N)C(=O)Nc1cc(Br)ccc1Br [LFM-A13] (first compound 1.4 µM, partner dose 2 µM) | 99.1 |
| O=C(O)c1ccc(-c2c[nH]c3ncc(-c4ccccc4)cc23)cc1C1CCCC1 + O=C(Oc1ccc([N+](=O)[O-])cc1)N1CCC(C(O)(c2ccc3c(c2)OCO3)c2ccc3c(c2)OCO3)CC1 [JZL184] (first compound 0.16 µM, partner dose 1 µM) | 80.8 |
| Cn1nnc2c(C(N)=O)ncn2c1=O [temozolomide] + O=C(Oc1ccc([N+](=O)[O-])cc1)N1CCC(C(O)(c2ccc3c(c2)OCO3)c2ccc3c(c2)OCO3)CC1 [JZL184] (first compound 2 µM, partner dose 1 µM) | 76.5 |
| Cc1cc(SCc2sc(-c3ccc(C(F)(F)F)c(F)c3)nc2C)ccc1OCC(=O)O + COc1cc(N2CCC(N3CCN(C)CC3)CC2)ccc1Nc1ncc(Cl)c(Nc2ccccc2S(=O)(=O)C(C)C)n1 [NVP-TAE684] (first compound 2 µM, partner dose 0.08 µM) | 546 |
| CCN(CC)CCCCNc1ncc2cc(-c3cc(OC)cc(OC)c3)c(NC(=O)NC(C)(C)C)nc2n1 + C/C(O)=C(\C#N)C(=O)Nc1cc(Br)ccc1Br [LFM-A13] (first compound 0.1 µM, partner dose 2 µM) | 333 |
| CN(NC(=O)CC(=O)NN(C)C(=S)c1ccccc1)C(=S)c1ccccc1 + C/C(O)=C(\C#N)C(=O)Nc1cc(Br)ccc1Br [LFM-A13] (first compound 0.006 µM, partner dose 2 µM) | 306 |
| CCN(CC)CCCCNc1ncc2cc(-c3cc(OC)cc(OC)c3)c(NC(=O)NC(C)(C)C)nc2n1 + Cc1cc(SCc2sc(-c3ccc(C(F)(F)F)c(F)c3)nc2C)ccc1OCC(=O)O [GW0742] (first compound 0.1 µM, partner dose 2 µM) | 45.6 |

— the supplement of paper PMC4604168 (melanoma cell lines)
